Laboratory results as given in article PMC7858071.

Key:
[1] = target: T18-MorA (P. aeruginosa PAO1) (UniProt Q9HVI8); test: two-hybrid; modified BACTH in E. coli BTH101, X-Gal agar, 30°C; untagged PelG alone coexpressed from pBADGr (0.5% arabinose)
[2] = target: T18-MorA (P. aeruginosa PAO1) (UniProt Q9HVI8); test: two-hybrid; BACTH in E. coli BTH101, N-terminal T18 and T25 fusions, LB agar with IPTG and X-Gal, 30°C, 24 h; no PelE or PelG coexpressed (empty pBADGr vector control)
[3] = target: T18-MorA (P. aeruginosa PAO1) (UniProt Q9HVI8); test: two-hybrid; modified BACTH in E. coli BTH101, X-Gal agar, 30°C; untagged PelE and PelG both coexpressed from pBADGr (0.5% arabinose)
[4] = target: T18-MorA (P. aeruginosa PAO1) (UniProt Q9HVI8); test: two-hybrid; modified BACTH in E. coli BTH101, X-Gal agar, 30°C; untagged PelE alone coexpressed from pBADGr (0.5% arabinose)

B1: T25-PelD (protein, UniProt Q9HZE7 1-455)
chain: MSAHKDFTLAPRASGSVSWVETLVISALALGLGWWFSPDDPLQVNATFPWVILAPLLLGMRYGFVRGLASAALLVAALFAFRARGVEAYAQVPAAFIVGVLLCAMLVGEFRDIWERRLERLELANEYRQLRLDEFTRAHHILRISHDRLEQRVAGNDQSLRSSLLGLRQLLRELPGDEAPLDALAETVLALLAQYGSLRIAGLYRVRYDRTPEPQPLATLGEMPALDADDLLVRTCLERGELVSVRQELLERGEQRAHSALQVCVPLVDTDGRILALLAVEQMPFFVFNERTFSLLAILAGHIADLLQSDRRALQLADIDAQRFSQYLKRSLLDARDHGLPACLYAFELTDARYGEEVQRLLEGSQRGLDVQLRLRNDEGRRVLLVLLPLTSAEGSQGYLQRLRILFAERFGQARELESLGVRIRQYELDAGNDRQALGHFLFNECGLNDQQVAI
- binding [1]: binds weakly
- binding [2]: binds weakly
- binding [3]: binds
- binding [4]: binds weakly

Results are given in words; binding and its absence hold for the method and conditions named. Binding calls can cover weak binding; strength is not graded here.
